Experimental data: PubChem BioAssay AID602196 (INSERM, 2012)

Screen: 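Knock-downs that protect lung cancer cells from cisplatin or sensitise them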
Cells: human A549 lung cancer cells
Reagent: siRNA pair against human genes
Duration: 48 h transfection before cisplatin; time from cisplatin to read-out not stated
Conditions: cisplatin at a dose killing half of control-siRNA cells; exact dose and duration not given
Measurement: 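Shift in cisplatin death relative to control siRNA, from -50 (all cells die) to +50 (no cells die); siRNAs harmful on their own scored 0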
Scale: two-siRNA summed score (-2 to +2): higher = both siRNAs protect from cisplatin killing; -2 means both sensitise; mean protection from cisplatin (shift in death) and protection from cisplatin (shift in death), siRNA C and protection from cisplatin (shift in death), siRNA D: higher = protection from cisplatin killing
Call rule: 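Each siRNA scores 0 if harmful alone by LDH or WST-1, otherwise +1 if it reduces and -1 if it increases cisplatin killing; a gene is active when both siRNAs agree (sum +2 or -2)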
Meaning of the calls: active = both siRNAs shift cisplatin killing the same way; inactive = no consistent shift, or siRNA harmful alone
The whole screen tested about 23,000 reagents; below is a part drawn at random. 455 of them (2%) count as active. 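Active includes both protection and sensitisation; some change values fall well beyond the stated -50 to +50 range.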 Not given: the amount of reagent.

gene,two-siRNA summed score (-2 to +2),mean protection from cisplatin (shift in death) (%),"protection from cisplatin (shift in death), siRNA C (%)","protection from cisplatin (shift in death), siRNA D (%)",outcome
TMEM39B (GeneID 55116),0,3.8,6.4,1.2,inactive
LOC441753,1,17.6,16.3,19,inactive
MT1G (GeneID 4495),0,23.9,39.6,8.2,inactive
PPP1R21 (GeneID 129285),0,19.9,26.4,13.3,inactive
SOX17 (GeneID 64321),-1,-7,-18,4,inactive
LOC441305,0,10.8,26.1,-4.6,inactive
ZNF767P (GeneID 79970),0,-2,16.9,-20.9,inactive
KCNJ5-AS1 (GeneID 219833),0,4.6,10.8,-1.7,inactive
MRC2 (GeneID 9902),0,-20.6,-29.8,-11.4,inactive
HARS2 (GeneID 23438),0,6.1,9.3,2.9,inactive
AKR1A1 (GeneID 10327),-1,-20.2,-18.2,-22.2,inactive
SPSB2 (GeneID 84727),0,-3.8,-9.5,2,inactive
FCHO2 (GeneID 115548),1,15.3,17,13.6,inactive
BRAT1 (GeneID 221927),0,6,4.6,7.4,inactive
CDK13 (GeneID 8621),-1,-0.6,-8.3,7,inactive
LOC91353,0,-4.6,-2.6,-6.5,inactive
TMEM53 (GeneID 79639),1,7.2,-5.6,20.1,inactive
H3-3A (GeneID 3020),0,15.4,-4.1,34.9,inactive
GTPBP4 (GeneID 23560),0,-0.5,-1.9,0.9,inactive
MAP4K1 (GeneID 11184),0,0.4,1.3,-0.6,inactive

2 of these entries in another layout.
ZNF767P (GeneID 79970): two-siRNA summed score (-2 to +2) = 0; mean protection from cisplatin (shift in death) (%) = -2; protection from cisplatin (shift in death), siRNA C (%) = 16.9; protection from cisplatin (shift in death), siRNA D (%) = -20.9; outcome = inactive
KCNJ5-AS1 (GeneID 219833): two-siRNA summed score (-2 to +2) = 0; mean protection from cisplatin (shift in death) (%) = 4.6; protection from cisplatin (shift in death), siRNA C (%) = 10.8; protection from cisplatin (shift in death), siRNA D (%) = -1.7; outcome = inactive

Next results:
gene,two-siRNA summed score (-2 to +2),mean protection from cisplatin (shift in death) (%),"protection from cisplatin (shift in death), siRNA C (%)","protection from cisplatin (shift in death), siRNA D (%)",outcome
LOC442387,0,4,5.1,2.9,inactive
FLCN (GeneID 201163),0,-3.2,14.4,-20.7,inactive
LOC158345,0,5.2,-5.7,16,inactive
SF3A3 (GeneID 10946),0,15.6,18.7,12.4,inactive
ZNF682 (GeneID 91120),1,13.7,10.9,16.4,inactive
RBPMS (GeneID 11030),0,-3.1,-2.8,-3.4,inactive
LOC440519,0,10.8,3.5,18.1,inactive
OR52A5 (GeneID 390054),1,12.4,7.7,17.1,inactive
DDT (GeneID 1652),0,14.1,-6.4,34.6,inactive
STRBP (GeneID 55342),0,-6.5,-2.8,-10.3,inactive
PFN4 (GeneID 375189),0,5,4.2,5.8,inactive
BCAS4 (GeneID 55653),0,-0.8,-11.6,10,inactive
FAM110A (GeneID 83541),1,7.7,-4,19.5,inactive
SPOUT1 (GeneID 51490),-1,-25.6,-23.3,-27.9,inactive
TOP1P1 (GeneID 7151),0,2,-3.8,7.7,inactive
DCAF5 (GeneID 8816),0,-1.8,-0.3,-3.3,inactive
RPSA2 (GeneID 388524),0,21.2,24.2,18.2,inactive
CNTNAP5 (GeneID 129684),2,23.8,33.4,14.2,active
OGT (GeneID 8473),0,5.6,13.5,-2.3,inactive
